# Entries after “also recorded” stand apart in the source; their conditions may differ.
# Tested on: SOD1 G93R mutant zebrafish larvae
# Assay: Toxicity analysis of larvae (morphology, cardiovascular system, behavior, mortality)
# Assay type: in vivo, zebrafish (Danio rerio)
# Details: Ciprofloxacin 1-500 μM
# Protocol: Treatment protocol SOD1 G93R mutant or WT fish were collected and raised according to accepted and approved protocols, see Westerfield M. The Zebrafish Book: a Guide for the Laboratory Use of Zebrafish (Danio rerio) 2000, incorporated herein as reference. Larvae's morphology was observed (heart rate, overall morphology and behavior) at each day.
# Toxicity analysis Fish were observed during the day of administration and the following days to observe toxicity. Acute toxicity was evaluated for apoptosis/necrosis and cardiovascular system abnormalities (heart rate, morphology, hemorrhage and edema). Head, eyes and overall morphological and behavioral toxicity were recorded according to accepted procedures^28.
smiles,measurement,setting,value
O=C(O)c1cn(C2CC2)c2cc(N3CCNCC3)c(F)cc2c1=O [Ciprofloxacin],"toxicity (morphology, behavior, mortality)",,no overall or subtle morphological and behavioral toxicity; also recorded: no drug induced effects in morphology or mortality were observed
same,"toxicity (morphology, behavior, mortality)",listed as ciprofloxacin,not toxic
